Experimental data: PubChem BioAssay AID493014 (National Center for Advancing Translational Sciences (NCATS), 2011)
The campaign covered roughly 340,000 compounds. About 170 (0.05%) were called active. Inconclusive means that the source gave no clear call. Such entries were picked first, then a sample of the others. Calls follow the shape of the dose curve; as a rule, active = well fitted inhibition curve with a large enough effect in the signal ratio, with a control signal flat (not every such curve was filed as active); inconclusive = small, poorly fitted or top-dose-only effect, or effect the other way, or a change in a side signal; inactive = flat fitted curve, though single readings scatter; the % refers to the signal ratio. A potency beside an inconclusive call is a rough fit, not a confirmed value.

Assay: qHTS Assay to Find Inhibitors of Chronic Active B-Cell Receptor Signaling;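 as to activity change, negative = inhibition: plate controls were basal doxycycline-induced cells for no effect and cells given 10 µM MG132 for full effect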
Settings: ABC-DLBCL IkBa-CBG/CBR reporter, luminescence ratio (green luciferase fused to IkBa over red control in TMD8 lymphoma cells), 4 h; activity change, negative = inhibition: at 46.1 µM (top of the series)
Summary of the method: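 Cell line TMD8 (human ABC DLBCL), stably expressing tet-inducible CBG68-IkBa fusion and CBR; IMDM/0.5% FBS; cpd up to 46 uM; dox induction, 4 h, 37C/5% CO2; dual luminescence; green/red ratio; MG132 control.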
Potency is read from the fitted curve at half-maximal effect.

Row | Compound | activity change, negative = inhibition | Potency
1 | COc1ccccc1Oc1ccc(NC(=O)c2ccccc2)cc1 | inconclusive: -14.9% | –
2 | C#CCOCCOCCOCCNc1nc(N2CCN(C(=O)CCCCCCCCCCNC(=O)[C@@H](CCC(=O)O)n3cc(CCCCCN)nn3)CC2)nc(N2CCN(C(=O)CCCCCCCCCCNC(=O)[C@H](CO)n3cc(CCCCCN)nn3)CC2)n1 | inconclusive: -0.0656% | –
3 | O=S(=O)(c1ccc(Cl)cc1)n1cccn1 | inconclusive: 7.19% | –
4 | CCCS(=O)(=O)Nc1ccc(N2CCCCC2)c(S(=O)(=O)Nc2ccccc2OC)c1 | inactive | –
5 | O=C(NC1CCCCC1)c1ccc(S(=O)(=O)c2ccccc2Cl)c([N+](=O)[O-])c1 | inconclusive: -0.0482% | –
6 | O=C(/C=C1\NC2(CCCC2)Cc2ccccc21)C(=O)N/N=C/c1ccc(O)c(O)c1 | – | inconclusive: 11.6 µM [falling, partial curve]
7 | CCc1nnc(NC(=O)[C@@H](NC(=O)c2cc(OC)cc(OC)c2)C(C)C)s1 | inactive | –
8 | CCN1CCN(Cc2c(O)ccc3c2O/C(=C\C=C\c2ccccc2OC)C3=O)CC1 | – | inconclusive: 20.6 µM [falling, partial curve]
9 | CC(=O)Nc1cccc(NC(=O)COc2ccc3c(c2)OCO3)c1 | – | inconclusive: 7.94 µM [falling, partial curve]
10 | O=c1c2c(nc(NCCO)n1CC1CCCCC1)-c1ccccc1CC21CCCC1 | – | inconclusive: 11.6 µM [rising, partial curve, poor fit]
11 | COc1ccc(-c2ccc(-c3nnc(Cc4ccc(OC)c(OC)c4)o3)cc2)cc1 | inconclusive: -0.142% | –
12 | COCCNC(=O)c1ccc2c(c1)ncn2-c1ccc(F)c(F)c1 | inconclusive: -15.5% | –
13 | N#Cc1ccc(-c2csc(NNC(=O)c3ccccc3)n2)cc1 | inconclusive: 7.01% | –
14 | OCCNCCSc1nc(C2CCCCC2)n(-c2ccccc2Cl)n1 | inconclusive: -30.6% | –
15 | Cc1cc(NC(=O)c2ccccc2)n(-c2nc3ccccc3[nH]2)n1 | inconclusive: 4.83% | –
16 | Cc1onc(-c2ccc3c(c2)OCO3)c1-c1ccc2[nH]ccc2c1 | inconclusive: 6.39% | –
17 | O=C(Nc1nc(-c2cccc3ccccc23)cs1)c1ccc2c(c1)S(=O)(=O)c1ccccc1C2=O | inactive | –
18 | CCCCn1c(N)c(N(C)C(=O)c2ccc(-n3cccn3)cc2)c(=O)[nH]c1=O | – | inconclusive: 18.4 µM [rising, single point]
19 | CC(=O)NCc1ccc(C(=O)CCl)cc1 | inconclusive: -3.4% | –
20 | Clc1ccc(/C=N\Nc2ccccc2)cc1 | inactive | –
21 | CCc1noc(C)c1C(=O)N(C)CC(=O)Nc1ccc(F)c(F)c1F | inactive | –
22 | COc1ccc(/C=C/C(=O)Nc2cccc(S(=O)(=O)N3CCOCC3)c2)cc1OC | inactive | –
23 | Cc1ccc(-n2nc(C(=O)O)cc2-c2ccccc2Cl)cc1 | inconclusive: 5.05% | –
24 | O=C(CSc1nc2ccccc2[nH]1)Nc1nc(-c2cccc(Br)c2)cs1 | – | inconclusive: 11.6 µM [rising, partial curve]
25 | Cc1cc(NC(=O)c2ccc(F)cc2)n(-c2ccccc2)n1 | inconclusive: 6.44% | –
26 | CCN(C(=O)CSc1ccc(S(=O)(=O)N2CCOCC2)cn1)c1ccccc1 | inactive | –

Row | Compound | activity change, negative = inhibition | Potency
27 | O=C(Nc1cccc(S(=O)(=O)NC2=NCCC2)c1)c1ccc(=O)[nH]c1 | inconclusive: 5.13% | –
28 | O=C(NCC(c1cccs1)N1CCOCC1)c1ccccc1NS(=O)(=O)c1ccc(Cl)c([N+](=O)[O-])c1 (configuration not stated) | inconclusive: 13.2% | –
29 | CC(=O)N1c2ccc(S(=O)(=O)N3CCCC3C(=O)NCc3ccc(Cl)cc3)cc2CC1C (configuration not stated) | – | inconclusive: 35.5 µM [rising, partial curve, poor fit]
30 | CC1=C(C(=O)OC2CCCCCCC2)C(c2cccc(O)c2)NC(=O)N1 (configuration not stated) | inconclusive: -10.5% | –
31 | COc1ccc(OC)c(C(=O)COC(=O)c2cc(C)oc2C)c1 | – | inconclusive: 16.4 µM [falling, single point]
32 | CSc1nnc(-c2cc3c(-c4ccccc4)nn(C)c3s2)n1C | inconclusive: 7.57% | –
33 | Nc1cc(Oc2ccc(Cl)cc2Cl)nc(N)n1 | inconclusive: -0.188% | –
34 | COC(c1ccccc1)c1nnc(CCC(=O)N2CCCCCCC2)o1 (configuration not stated) | inconclusive: 8.44% | –
35 | N#C/C(=C\c1ccc2c(c1)OCCO2)C(=O)Nc1ccc(C(=O)O)cc1 | – | inconclusive: 11.2 µM [falling, partial curve]
36 | CC(=O)c1sc(NC(=O)c2ccccc2C)nc1C | – | inconclusive: 8.91 µM [falling, partial curve]
37 | Cc1cc(N/C=C/C(=O)c2ccccc2)ccc1Br | – | inconclusive: 3.98 µM [falling, partial curve]
38 | CC(C)[C@H](NC(=O)[C@@H]1Cc2c([nH]c3ccccc23)C2c3ccccc3C(=O)N21)C(=O)NCC1CCCO1 (some centres not stated) | inconclusive: 6.26% | –
39 | C=CCN1N=C(/C=C/c2ccc(C)cc2)CCC1=O | inconclusive: 9.55% | –
40 | O=C(Cc1cccs1)NC1CC(=O)N(c2ccc(F)cc2)C1 (configuration not stated) | inactive | –
41 | CCOC(=O)Cc1c(C)nc2cc(-c3ccc(C(C)(C)C)cc3)[nH]n2c1=O | inconclusive: 9.99% | –
42 | Brc1ccc(-c2nnc(-c3ccccc3)o2)o1 | – | inconclusive: 18.4 µM [falling, single point]
43 | Nc1nn(-c2cccc(F)n2)cc1-c1ccccc1 | – | inconclusive: 22.4 µM [falling, partial curve]
44 | CCC(CC)NC(=O)Nc1ccc(F)c(Cl)c1 | inactive | –
45 | CC(OC(=O)c1ccc(CN2CCCC2=O)cc1)C(=O)Nc1ccc(Cl)cc1 (configuration not stated) | inconclusive: 1.33% | –
46 | Cc1ccc(N(Cc2ccccc2)C(=O)c2cccc(S(=O)(=O)N3CCOCC3)c2)cc1 | inactive | –
47 | Nc1ncnc(SCc2c(F)cccc2Cl)n1 | – | inconclusive: 11.2 µM [falling, partial curve]
48 | Cn1c(CCNC(=O)c2ccco2)nc2cc(NC(=O)c3ccccc3Cl)ccc21 | – | inconclusive: 35.5 µM [falling, single point]
49 | COc1cccc(C(=O)Nc2ccc3[nH]ncc3c2)c1 | – | inconclusive: 22.4 µM [falling, partial curve]
50 | CCOc1ccc(NC(=O)c2cccc(OC(=S)N3CCC(C)CC3)c2)cc1 | inconclusive: -16.8% | –
51 | O=C(CC(=O)c1c(F)cccc1Cl)c1ccccc1O | inactive | –
52 | COc1ccc(NC(=O)CSc2nccn2Cc2ccccc2)c(OC)c1 | inconclusive: 4.52% | –

Ordered by molar mass (descending): part of the list above
Row | Compound | activity change, negative = inhibition | Potency
46 | Cc1ccc(N(Cc2ccccc2)C(=O)c2cccc(S(=O)(=O)N3CCOCC3)c2)cc1 | inactive | –
27 | O=C(Nc1cccc(S(=O)(=O)NC2=NCCC2)c1)c1ccc(=O)[nH]c1 | inconclusive: 5.13% | –
37 | Cc1cc(N/C=C/C(=O)c2ccccc2)ccc1Br | – | inconclusive: 3.98 µM [falling, partial curve]
51 | O=C(CC(=O)c1c(F)cccc1Cl)c1ccccc1O | inactive | –
39 | C=CCN1N=C(/C=C/c2ccc(C)cc2)CCC1=O | inconclusive: 9.55% | –

(list continues)

Row | Compound | activity change, negative = inhibition | Potency
53 | O=C(Cn1cnc2c(NCc3ccccc3)ncnc21)NCc1ccccc1 | – | inconclusive: 18.4 µM [falling, single point]
54 | COc1ccc(/C=C/C(=O)NC(C)(C)C)cc1S(=O)(=O)N1CCOCC1 | inactive | –
55 | CN(CCNC(=O)c1cc2c(=O)n(C)c3ccccc3c2n1C)Cc1ccccc1 | inconclusive: -1.9% | –
56 | O=C(COC(=O)C1CC1)c1c[nH]c2ccccc12 | – | inconclusive: 18.4 µM [falling, single point]
57 | O=C(Nc1ccc([N+](=O)[O-])cn1)c1ccc2c(c1)OCO2 | – | inconclusive: 1.26 µM [falling, full curve]
58 | CCC(=O)Nc1ccc(C(=O)Cn2ncc(Cl)c(Cl)c2=O)cc1 | – | inconclusive: 15.8 µM [rising, single point]
59 | O=C1C=C(c2ccnc3cc(Cl)ccc23)C[C@@H](c2ccc3c(c2)OCO3)C1 | inconclusive: 3.45% | –
60 | Cc1ccc(NC(=O)CSc2nc3ccccc3c(=O)n2CCCC(=O)NCCCN2CCOCC2)cc1C | inconclusive: 6.02% | –
61 | Cc1cc(C)c(NC(=O)CN(C)C(=O)CCC(=O)c2ccc(C)s2)c(C)c1 | inconclusive: -0.864% | –
62 | CCn1c2ccccc2c2cc(NC(C)=O)ccc21 | – | inconclusive: 3.66 µM [rising, partial curve, poor fit]
63 | CCCNc1nc(C)cc(-c2cc(C(=O)NCc3ccccc3)on2)n1 | inconclusive: -9.74% | –
64 | Cc1cnc(C(=O)OCC(=O)Nc2cc(-c3cc(C)c(C)cc3C)nn2-c2ccccc2)cn1 | inconclusive: 7.78% | –
65 | N#CCN1CCC2(O)CCCCC2C1c1ccc2c(c1)OCO2 (configuration not stated) | inactive | –
66 | CC(=O)c1c(C)[nH]c(C(=O)OCC(=O)NCc2ccc(Cl)cc2)c1C | – | inconclusive: 16.4 µM [falling, partial curve, poor fit]
67 | Cc1ccc(S(=O)(=O)c2nnn(-c3ccc(F)c(Cl)c3)c2N)cc1 | inconclusive: 8.81% | –
68 | Cc1ccccc1Nc1nnc(SCC(=O)NC(=O)NCc2ccco2)s1 | inconclusive: -10.3% | –
69 | CC(c1ccco1)N(C(=O)c1ccccc1NS(=O)(=O)c1ccc(Cl)c([N+](=O)[O-])c1)c1ccccn1 (configuration not stated) | inconclusive: -6.32% | –
70 | Cc1ccc2ncccc2c1N | inactive | –
71 | COc1cccc(NC(=O)c2cccc(Cl)c2)c1 | – | inconclusive: 14.6 µM [falling, partial curve]
72 | COC(=O)c1ccccc1NC(=O)C1=CC(c2cccs2)=NS(=O)(=O)N1C | – | inconclusive: 3.55 µM [falling, partial curve]
73 | COc1nc(Oc2ccc(/C=N/O)cc2)nc(N(C)C)n1 | – | inconclusive: 3.98 µM [falling, partial curve, poor fit]
74 | COc1cc2cnc(-c3ccccc3)c(C(=O)c3ccc(F)cc3)c2cc1OC | inconclusive: 21.5% | –
75 | CCOC(=O)C1CCN(Cc2ccc(O)c3ncccc23)CC1 | inactive | –
76 | N#C/C(=C(/O)COC(=O)CSc1ccc2ccccc2c1)c1nc2ccccc2[nH]1 | inactive | –
77 | CCC(C(=O)N1CCN(c2cccc(Cl)c2)CC1)c1ccccc1 (configuration not stated) | – | inconclusive: 23.1 µM [rising, partial curve, poor fit]
